Laboratory results: patent US8962845B2, “Pyrazole compounds” (National Health Research Institutes, priority 2011, dated 2015)
Some of these results come from one statement about several compounds together.

Sequences of proteins named here, by UniProt entry; tags and fusion partners are left off.
UniProt P21554, whole entry: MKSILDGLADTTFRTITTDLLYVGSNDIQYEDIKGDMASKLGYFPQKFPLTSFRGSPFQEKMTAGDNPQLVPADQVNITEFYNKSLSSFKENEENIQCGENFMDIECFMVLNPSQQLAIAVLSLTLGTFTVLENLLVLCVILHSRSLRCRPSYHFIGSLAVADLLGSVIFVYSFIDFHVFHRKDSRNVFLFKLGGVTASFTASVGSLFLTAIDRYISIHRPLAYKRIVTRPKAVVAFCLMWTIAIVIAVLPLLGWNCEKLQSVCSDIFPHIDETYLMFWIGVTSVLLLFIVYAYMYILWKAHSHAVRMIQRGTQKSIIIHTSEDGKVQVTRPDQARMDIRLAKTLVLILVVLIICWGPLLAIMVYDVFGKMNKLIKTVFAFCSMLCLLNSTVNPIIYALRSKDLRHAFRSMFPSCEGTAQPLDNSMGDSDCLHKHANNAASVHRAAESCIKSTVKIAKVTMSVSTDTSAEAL

target: T1, Human CB1 receptor (Homo sapiens, UniProt P21554); experiment: DELFIA GTP-binding assay; format: biochemical; details: 20 nM CP55,940; HEK293 membranes; units given in the value
T1 construct: expressed in transfected cells

SMILES	EC50 for inhibiting Eu-GTP binding (CP55,940-stimulated CB1 receptor activation)
O=C(NN1CCCCC1)c1nn(-c2ccc(Cl)cc2Cl)c(-c2ccc(C#Cc3ccc(C(F)(F)F)cc3)s2)c1CNC1=NCCN1 [Compound 23, 1-(2,4-Dichlorophenyl)-4-((4,5-dihydro-1H-imidazol-2-ylamino)methyl)-N-(piperidin-1-yl)-5-(5-((4-(trifluoromethyl)phenyl)ethynyl)thiophen-2-yl)-1H-pyrazole-3-carboxamide]	0.001 µM and 10 µM
O=C(NN1CCCCC1)c1nn(-c2ccc(Cl)cc2Cl)c(-c2ccc(C#Cc3ccc(C(F)(F)F)cc3)s2)c1CNS(=O)(=O)N1CCC(F)(F)CC1 [Compound 153, 1-(2,4-dichlorophenyl)-4-((4,4-difluoropiperidine-1-sulfonamido)methyl)-N-(piperidin-1-yl)-5-(5-((4-(trifluoromethyl)phenyl)ethynyl)thiophen-2-yl)-1H-pyrazole-3-carboxamide]	0.001 µM and 10 µM
O=C(NN1CCCCC1)c1nn(-c2ccc(Cl)cc2Cl)c(-c2ccc(C(F)(F)F)cc2)c1CNC1=NCCN1 [Compound 140, 1-(2,4-Dichlorophenyl)-4-((4,5-dihydro-1H-imidazol-2-ylamino)methyl)-N-(piperidin-1-yl)-5-(4-(trifluoromethyl)phenyl)-1H-pyrazole-3-carboxamide]	0.001 µM and 10 µM
CC(C)NCc1c(C(=O)NN2CCCCC2)nn(-c2ccc(Cl)cc2Cl)c1-c1ccc(C#Cc2ccc(C(F)(F)F)cc2)s1 [Compound 90, 1-(2,4-Dichlorophenyl)-4-((isopropylamino)methyl)-N-(piperidin-1-yl)-5-(5-((4-(trifluoromethyl)phenyl)ethynyl)thiophen-2-yl)-1H-pyrazole-3-carboxamide]	0.001 µM and 10 µM
O=C(NN1CCCCC1)c1nn(-c2ccc(Cl)cc2Cl)c(-c2ccc(Cl)cc2)c1CNC1=NCCN1 [Compound 131, 5-(4-Chlorophenyl)-1-(2,4-dichlorophenyl)-4-((4,5-dihydro-1H-imidazol-2-ylamino)methyl)-N-(piperidin-1-yl)-1H-pyrazole-3-carboxamide]	0.001 µM and 10 µM
O=C(NN1CCCCC1)c1nn(-c2ccc(Cl)cc2Cl)c(-c2ccc(C#Cc3ccc(C(F)(F)F)cc3)s2)c1CNS(=O)(=O)N1CC[C@H](O)C1 [Compound 145, 1-(2,4-dichlorophenyl)-4-(((S)-3-hydroxypyrrolidine-1-sulfonamido)methyl)-N-(piperidin-1-yl)-5-(5-((4-(trifluoromethyl)phenyl)ethynyl)thiophen-2-yl)-1H-pyrazole-3-carboxamide]	0.001 µM and 10 µM
O=C(NN1CCCCC1)c1nn(-c2ccc(Cl)cc2Cl)c(-c2ccc(C#Cc3ccc(C(F)(F)F)cc3)s2)c1CN1CCC[C@H]1CO [Compound 101, 1-(2,4-Dichlorophenyl)-4-(((S)-2-(hydroxymethyl)pyrrolidin-1-yl)methyl)-N-(piperidin-1-yl)-5-(5-((4-(trifluoromethyl)phenyl)ethynyl)thiophen-2-yl)-1H-pyrazole-3-carboxamide]	0.001 µM and 10 µM
CC1CC(C)CN(S(=O)(=O)NCc2c(C(=O)NN3CCCCC3)nn(-c3ccc(Cl)cc3Cl)c2-c2ccc(C#Cc3ccc(C(F)(F)F)cc3)s2)C1 (centres unmarked) [Compound 36]	0.001 µM and 10 µM
CN1CCN(S(=O)(=O)NCc2c(C(=O)NN3CCCCC3)nn(-c3ccc(Cl)cc3Cl)c2-c2ccc(C#Cc3ccc(C(F)(F)F)cc3)s2)CC1 [Compound 41, 1-(2,4-Dichlorophenyl)-4-((4-methylpiperazine-1-sulfonamido)methyl)-N-(piperidin-1-yl)-5-(5-((4-(trifluoromethyl)phenyl)ethynyl)thiophen-2-yl)-1H-pyrazole-3-carboxamide]	0.001 µM and 10 µM
O=C(NN1CCCCC1)c1nn(-c2ccc(Cl)cc2Cl)c(-c2ccc(C#Cc3ccc(C(F)(F)F)cc3)s2)c1CN1CCC[C@@H]1CO [Compound 102, 1-(2,4-Dichlorophenyl)-4-(((R)-2-(hydroxymethyl)pyrrolidin-1-yl)methyl)-N-(piperidin-1-yl)-5-(5-((4-(trifluoromethyl)phenyl)ethynyl)thiophen-2-yl)-1H-pyrazole-3-carboxamide]	0.001 µM and 10 µM
O=C(NN1CCCCC1)c1nn(-c2ccc(Cl)cc2Cl)c(-c2ccc(Cl)cc2)c1CNS(=O)(=O)NC1CCCC1 [Compound 133, 5-(4-Chlorophenyl)-4-((N-cyclopentylsulfamoylamino)methyl)-1-(2,4-dichlorophenyl)-N-(piperidin-1-yl)-1H-pyrazole-3-carboxamide]	0.001 µM and 10 µM
CNC(=S)NCc1c(C(=O)NN2CCCCC2)nn(-c2ccc(Cl)cc2Cl)c1-c1ccc(C#Cc2ccc(C(F)(F)F)cc2)s1 [Compound 21, 1-(2,4-Dichlorophenyl)-4-((3-methylthioureido)methyl)-N-(piperidin-1-yl)-5-(5-((4-(trifluoromethyl)phenyl)ethynyl)thiophen-2-yl)-1H-pyrazole-3-carboxamide]	0.001 µM and 10 µM
O=C(NN1CCCCC1)c1nn(-c2ccc(Cl)cc2Cl)c(-c2ccc(C#Cc3ccc(C(F)(F)F)cc3)s2)c1CNS(=O)(=O)N1CC[C@@H](O)C1 [Compound 144, 1-(2,4-dichlorophenyl)-4-(((R)-3-hydroxypyrrolidine-1-sulfonamido)methyl)-N-(piperidin-1-yl)-5-(5-((4-(trifluoromethyl)phenyl)ethynyl)thiophen-2-yl)-1H-pyrazole-3-carboxamide]	0.001 µM and 10 µM
O=C(NN1CCCCC1)c1nn(-c2ccc(Cl)cc2Cl)c(-c2ccc(C#Cc3ccc(C(F)(F)F)cc3)s2)c1CNS(=O)(=O)N1CCC(C(F)(F)F)C1 (centres unmarked) [Compound 152, 1-(2,4-dichlorophenyl)-N-(piperidin-1-yl)-5-(5-((4-(trifluoromethyl)phenyl)ethynyl)thiophen-2-yl)-4-((3-(trifluoromethyl)pyrrolidine-1-sulfonamido)methyl)-1H-pyrazole-3-carboxamide]	0.001 µM and 10 µM
O=C(NN1CCCCC1)c1nn(-c2ccc(Cl)cc2Cl)c(-c2ccc(C#Cc3ccc(Cl)cc3)s2)c1CNS(=O)(=O)NC1CCCC1 [Compound 56, 5-(5-((4-Chlorophenyl)ethynyl)thiophen-2-yl)-4-((N-cyclopentylsulfamoylamino)methyl)-1-(2,4-dichlorophenyl)-N-(piperidin-1-yl)-1H-pyrazole-3-carboxamide]	0.001 µM and 10 µM
O=C(NN1CCCCC1)c1nn(-c2ccc(Cl)cc2Cl)c(-c2ccc(C#Cc3ccc(C(F)(F)F)cc3)s2)c1CNS(=O)(=O)N1COC1 [Compound 48, 4-((1,3-Oxazetidine-3-sulfonamido)methyl)-1-(2,4-dichlorophenyl)-N-(piperidin-1-yl)-5-(5-((4-(trifluoromethyl)phenyl)ethynyl)thiophen-2-yl)-1H-pyrazole-3-carboxamide]	0.001 µM and 10 µM
O=C(NCc1c(C(=O)NN2CCCCC2)nn(-c2ccc(Cl)cc2Cl)c1-c1ccc(C#CC2CCCC2)s1)NC1CC1 [Compound 82, 5-(5-(Cyclopentylethynyl)thiophen-2-yl)-4-((3-cyclopropylureido)methyl)-1-(2,4-dichlorophenyl)-N-(piperidin-1-yl)-1H-pyrazole-3-carboxamide]	0.001 µM and 10 µM
O=C(NN1CCCCC1)c1nn(-c2ccc(Cl)cc2Cl)c(-c2ccc(C#Cc3ccc(C(F)(F)F)cc3)s2)c1CNS(=O)(=O)NC1CCCC1 [Compound 43, 4-((N-Cyclopentylsulfamoylamino)methyl)-1-(2,4-dichlorophenyl)-N-(piperidin-1-yl)-5-(5-((4-(trifluoromethyl)phenyl)ethynyl)thiophen-2-yl)-1H-pyrazole-3-carboxamide]	0.001 µM and 10 µM
N#CC1(NCc2c(C(=O)NN3CCCCC3)nn(-c3ccc(Cl)cc3Cl)c2-c2ccc(C#Cc3ccc(C(F)(F)F)cc3)s2)CC1 [Compound 108, 4-((1-Cyanocyclopropylamino)methyl)-1-(2,4-dichlorophenyl)-N-(piperidin-1-yl)-5-(5-((4-(trifluoromethyl)phenyl)ethynyl)thiophen-2-yl)-1H-pyrazole-3-carboxamide]	0.001 µM and 10 µM
O=C(NN1CCCCC1)c1nn(-c2ccc(Cl)cc2Cl)c(-c2ccc(Cl)cc2)c1CNS(=O)(=O)C1CCCC1 [Compound 123, 5-(4-Chlorophenyl)-4-(cyclopentanesulfonamidomethyl)-1-(2,4-dichlorophenyl)-N-(piperidin-1-yl)-1H-pyrazole-3-carboxamide]	0.001 µM and 10 µM
C#CCNCc1c(C(=O)NN2CCCCC2)nn(-c2ccc(Cl)cc2Cl)c1-c1ccc(C#Cc2ccc(C(F)(F)F)cc2)s1 [Compound 97, 1-(2,4-Dichlorophenyl)-N-(piperidin-1-yl)-4-((prop-2-ynylamino)methyl)-5-(5-((4-(trifluoromethyl)phenyl)ethynyl)thiophen-2-yl)-1H-pyrazole-3-carboxamide]	0.001 µM and 10 µM
[N-]=[N+]=NCc1c(C(=O)NN2CCCCC2)nn(-c2ccc(Cl)cc2Cl)c1-c1ccc(C#Cc2ccc(C(F)(F)F)cc2)s1 [Compound 112, 4-(Azidomethyl)-1-(2,4-dichlorophenyl)-N-(piperidin-1-yl)-5-(5-((4-(trifluoromethyl)phenyl)ethynyl)thiophen-2-yl)-1H-pyrazole-3-carboxamide]	0.001 µM and 10 µM
O=C(NN1CCCCC1)c1nn(-c2ccc(Cl)cc2Cl)c(-c2ccc(C#Cc3ccc(Cl)cc3)s2)c1CNS(=O)(=O)N1CCCCC1 [Compound 55, 5-(5-((4-Chlorophenyl)ethynyl)thiophen-2-yl)-1-(2,4-dichlorophenyl)-N-(piperidin-1-yl)-4-((piperidine-1-sulfonamido)methyl)-1H-pyrazole-3-carboxamide]	0.001 µM and 10 µM
